These results are taken from EP1345618B1, “CHLORZOXAZONE FOR THE TREATMENT OF PSORIASIS” (Switch Biotech Aktiengesellschaft, priority 2000, dated 2002).

The structures appear in SMILES notation.

The series deals with mIK1. The experiment in a line: TaqMan analysis of mIK1 expression in mouse skin and wound biopsies. Type of series: in vivo, Maus. The settings on record: for Rel. mIK1 cDNA Menge: BALB/c mice, Dexamethason 0,5 mg/kg i.p. twice daily for 5 days, control intact skin = 1. On the technique in general: In qPCR the cycle at which signal appears reflects the starting amount.

As for `C[C@@H]1C[C@H]2[C@@H]3CCC4=CC(=O)C=C[C@]4(C)[C@@]3(F)[C@@H](O)C[C@]2(C)[C@@]1(O)C(=O)CO` [Dexamethason], the “Anstieg der mIK1-Expression (Faktor), Wunde gegen intakte Haut” value (Dexamethason-treated, poorly healing wounds) was 2,2. Also, the “Rel. mIK1 cDNA Menge” value runs as follows: (day 1 wound) 2,68; (intact skin) 1,20.
